Test results as given in patent US20210206856A1.

Tests used:
[1] = target: cyno MAdCAM protein (cyno); test: Octet
[2] = target: cyno MAdCAM protein (cyno); test: ELISA

Row | binding [1] | binding [2] | Binder
1 | binds |  | MAdCAM Antibody Table 1 Clone 5 (scFv) scFv: EVQLLESGGGLVQPGGSLRLSCAASGFTFSSYWMHWVRQAPGKGLEWVSSISPGGSNIDYADSVKGRFTISRDNSKNTLYLQMNSLRAEDTAVYYCAREVQLSHYDYWGQGTLVTVSSGGGGSGGGGSGGGGSGGGGSDIQMTQSPSSLSASVGDRVTITCRASQGISNSLAWYQQKPGKAPKLLIYGASSLQSGVPSRFSGSGSGTDFTLTISSLQPEDFATYYCQQANSFPFTFGQGTKVEIK
2 | no binding |  | MAdCAM Antibody Table 2 Clone 7 (antibody, human IgG1, V domains shown) VH: EVQLLESGGGLVQPGGSLRLSCAASGFTFSDYQMSWVRQAPGKGLEWVAIISHADGGFKDYADSVKGRFTISRDNSKNTLYLQMNSLRAEDTAVYYCAKPYSSGWSAVYYFDYWGQGTLVTVSS VL: DIQMTQSPSSLSASVGDRVTITCRASRGITNDLGWYQQKPGKAPKLLIYAASTLQSGVPSRFSGSGSGTDFTLTISSLQPEDFATYYCQQAYSFPWTFGQGTKVEIK
3 | binds | binds | MAdCAM Antibody Table 2 Clone 6 (antibody, human IgG1, V domains shown) VH: EVQLLESGGGLVQPGGSLRLSCAASGFTFNNYAFHWVRQAPGKGLEWVSRINSYGTSTTYADSVKGRFTISRDNSKNTLYLQMNSLRAEDTAVYYCAREGPVAGYWYFDLWGQGTLVTVSS VL: DIQMTQSPSSLSASVGDRVTITCRASQIIGTNLAWYQQKPGKAPKLLIYGASSLQSGVPSRFSGSGSGTDFTLTISSLQPEDFATYYCQQSYRLPFTFGQGTKVEIK
4 | no binding |  | MAdCAM Antibody Table 2 Clone 24 (antibody, human IgG1, V domains shown) VH: EVQLVESGGGLVKPGGSLRLSCAASGFTFSSYWMSWVRQAPGKGLEWVSRISSDGRITTYAAPVKGRFTISRDDSKNTLYLQMNSLKTEDTAVYYCARGTSYCTGGVCDIDYWGQGTLVTVSS VL: DIQMTQSPSSLSASVGDRVTITCRASQSIGRNLNWYQQKPGKAPKLLIYSASNLQSGVPSRFSGSGSGTDFTLTISSLQPEDFATYYCQQSYSIPLTFGPGTKVDIK
5 | binds |  | MAdCAM Antibody Table 1 Clone 9 (scFv) scFv: EVQLLESGGGLVQPGGSLRLSCAASGFTFSDYYMNWVRQAPGKGLEWVSVIGESGGSTYYADSVKGRFTISRDNSKNTLYLQMNSLRAEDTAVYYCAADPVSRWPKHGGGDYWGQGTLVTVSSGGGGSGGGGSGGGGSGGGGSDIQMTQSPSSLSASVGDRVTITCRASQGISSSLAWYQQKPGKAPKLLIYAASTLQSGVPSRFSGSGSGTDFTLTISSLQPEDFATYYCQQSYSTPWTFGQGTKVEIK
6 | binds | binds | MAdCAM Antibody Table 2 Clone 75 (antibody, human IgG1, V domains shown) VH: EVQLLESGGGLVQPGGSLRLSCAASGFTFSDFWMHWVRQAPGKGLEWISYISGDSGYTNYADSVKGRFTISRDNSKNTLYLQMNSLRAEDTAVYYCARDRPYYYYMDVWGKGTTVTVSS VL: DIQMTQSPSSLSASVGDRVTITCRASQSVSRSLAWYQQKPGKAPKLLIYAASSLQSGVPSRFSGSGSGTDFTLTISSLQPEDFATYYCQQYKSYPVTFGQGTKVEIK
7 | no binding |  | MAdCAM Antibody Table 2 Clone 14 (antibody, human IgG1, V domains shown) VH: QVQLVQSGAEVKKPGSSVKVSCKASGYTFTNYYMHWVRQAPGQGLEWMGGIIPIVDGVKYAQKFQGRVTITADESTSTAYMELSSLRSEDTAVYYCAKGQFTGNYYYGMDYWGQGTLVTVSS VL: DIQMTQSPSSLSASVGDRVTITCQANQDISNYLNWYQQKPGKAPKLLIYRASKLEAGVPSRFSGSGSGTDFTLTISSLQPEDFATYYCQQSSEIPYSFGQGTKVEIK
8 | binds |  | MAdCAM Antibody Table 1 Clone 6 (scFv) scFv: EVQLLESGGGLVQPGGSLRLSCAASGFTFNNYAFHWVRQAPGKGLEWVSRINSYGTSTTYADSVKGRFTISRDNSKNTLYLQMNSLRAEDTAVYYCAREGPVAGYWYFDLWGQGTLVTVSSGGGGSGGGGSGGGGSGGGGSDIQMTQSPSSLSASVGDRVTITCRASQIIGTNLAWYQQKPGKAPKLLIYGASSLQSGVPSRFSGSGSGTDFTLTISSLQPEDFATYYCQQSYRLPFTFGQGTKVEIK
9 | binds |  | MAdCAM Antibody Table 1 Clone 7 (scFv) scFv: QVQLVQSGAEVKKPGASVKVSCKASGYTFTGYHIHWVRQAPGQGLEWMGIINPSGGSTIYAQKFQGRVTMTRDTSTSTVYMELSSLRSEDTAVYYCAKDWSSWYLGPFDYWGQGTLVTVSSGGGGSGGGGSGGGGSGGGGSDIQMTQSPSSLSASVGDRVTITCRASQNISSSLNWYQQKPGKAPKLLIYAASSLQSGVPSRFSGSGSGTDFTLTISSLQPEDFATYYCQQSYTTPYTFGQGTKVEIK

Results are given in words; binding and its absence hold for the method and conditions named. A result given as binding can be weak or reduced; the word gives no strength.
